# The list shows a part of the results.
# Target: T1, OsSMF1 (Oryza sativa, UniProt Q6ZLB0 1-436)
# T1 sequence: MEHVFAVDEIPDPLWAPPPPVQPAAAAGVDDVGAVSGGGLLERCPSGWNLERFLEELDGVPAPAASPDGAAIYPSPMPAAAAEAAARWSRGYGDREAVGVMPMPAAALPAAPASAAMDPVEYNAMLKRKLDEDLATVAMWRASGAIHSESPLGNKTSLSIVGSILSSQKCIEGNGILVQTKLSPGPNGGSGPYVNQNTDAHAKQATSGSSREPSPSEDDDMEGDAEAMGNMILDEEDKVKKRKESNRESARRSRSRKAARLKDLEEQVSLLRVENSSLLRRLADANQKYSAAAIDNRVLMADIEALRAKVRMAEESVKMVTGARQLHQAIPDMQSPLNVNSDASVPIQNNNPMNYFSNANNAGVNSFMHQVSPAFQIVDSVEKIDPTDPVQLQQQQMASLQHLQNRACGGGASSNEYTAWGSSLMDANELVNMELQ
# Experiment: protein-binding microarray (RPBM); PBS, 2% BSA, 51.3 ng/ul salmon testes DNA, 50 uM zinc acetate, 200 nM TF, 25 C, 1 h; high values mean tight binding
# Details: protein: recombinant; tags: N-terminal polyhistidine and DsRed monomer fusion (pET32a); chain copies: 2; label: CyDye5-dUTP incorporated in the synthesized complementary strand; 3' TTTTT single-stranded linker to array surface; dsDNA, one strand shown
# Method in brief: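 Polyhistidine-tagged DsRed fusions of transcription factors, joined at the N-terminus, were expressed in E. coli BL21-CodonPlus and isolated on Ni–NTA. They were incubated at 200 nM for 1 h at 25 °C on a custom Agilent array, double-stranded and BSA-blocked, in PBS with 2% BSA, salmon testes DNA and 50 µM zinc acetate. The binding signal is per-feature fluorescence intensity (arbitrary units) read on an Axon 4000B scanner after washing.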
row,Sequence,binding signal
1,GCCAGGCGCGGCATGTGCTGACGTGAGTTGTGGAGTCTACCGGAGTCACCTAGTGCAG,4210 fluorescence intensity (a.u.)
2,TCCGAGCTCGTAGCCTCGCTCTCCCGCCTATAAATTCACCCGGAGTCACCTAGTGCAG,4390 fluorescence intensity (a.u.)
3,CTCGGCCGGCTACGTTGGAGATGAGGGCTGGAGGCGGCTGCGGAGTCACCTAGTGCAG,3420 fluorescence intensity (a.u.)
4,CCGACAAAAGATGGTTTCTCCATCAGTGAAGACACAATGTCGGAGTCACCTAGTGCAG,19500 fluorescence intensity (a.u.)
5,TTCGAGTTGGTCGCCGTGCGGCGATGGCGACCGCCAAGTGCGGAGTCACCTAGTGCAG,21300 fluorescence intensity (a.u.)
6,ACTAGGATGTCACAACAGCCAAACCATCCATATACTGCCACGGAGTCACCTAGTGCAG,3170 fluorescence intensity (a.u.)
7,GATAGATACACCAACCAGGAGACATCACGACACGTCATCGCGGAGTCACCTAGTGCAG,29200 fluorescence intensity (a.u.)
8,GGAGATTTGGATACAAAACGTGACGGCAGTGATATGGTTACGGAGTCACCTAGTGCAG,3440 fluorescence intensity (a.u.)
9,GCGGAATTATTCTGGTGAGAGGTCTGATTGCATGTCAGCCCGGAGTCACCTAGTGCAG,3150 fluorescence intensity (a.u.)
10,CATCACTGCCTCACCACCTTATATTAGTCACGTTTGACGGCGGAGTCACCTAGTGCAG,4380 fluorescence intensity (a.u.)
11,CCAACCGTGGGCCACCCAGGTCACATTGGTTCTGCTCTACCGGAGTCACCTAGTGCAG,3270 fluorescence intensity (a.u.)
12,CCCATCACAAATCTCTATAAGATGGTATACTTAGTAACAACGGAGTCACCTAGTGCAG,3800 fluorescence intensity (a.u.)
13,TTGGTGAGTTGACAGAAATTTGTATCATCTTAAAATGAGCCGGAGTCACCTAGTGCAG,3210 fluorescence intensity (a.u.)
14,AATCTGCACCGGTTTTGATAGTTAAGGGACTAATTGTATCCGGAGTCACCTAGTGCAG,41700 fluorescence intensity (a.u.)
15,TGGACGAATCTTTTAAGCCTAATTGCGTCATGATTTGACACGGAGTCACCTAGTGCAG,5380 fluorescence intensity (a.u.)
16,TATGTGAAAGTCAATGACGTCACATATTTTAAAACAAGGTCGGAGTCACCTAGTGCAG,6320 fluorescence intensity (a.u.)
17,AACTGTCACTACTTCATCCAACCACTCCAAATCCAAAACCCGGAGTCACCTAGTGCAG,3420 fluorescence intensity (a.u.)
18,ATCTTCTTCTTCATCGCTGTGCAGCTACACACTCTCACTGCGGAGTCACCTAGTGCAG,3180 fluorescence intensity (a.u.)
19,TGCCAGTAATTGTGACGTGACAAGATGCAGGCGTGGTGTGCGGAGTCACCTAGTGCAG,4770 fluorescence intensity (a.u.)
20,CCGCGAGCCACCGCTACCGTCTTGACGCGTGCCCATTCTCCGGAGTCACCTAGTGCAG,3750 fluorescence intensity (a.u.)
21,GGAAAGAGAGATGATGATGATGTGGCATATTGACGTGTGGCGGAGTCACCTAGTGCAG,8870 fluorescence intensity (a.u.)

row,Sequence,binding signal
1,TCCCCGTCTTTTCCTTCCGCCTCACCAACCTCGTCTCGTCCGGAGTCACCTAGTGCAG,3330 fluorescence intensity (a.u.)
2,GTACAATTTACTCAAATAACATTGACTGGCATTCTTGGTGCGGAGTCACCTAGTGCAG,3350 fluorescence intensity (a.u.)
3,GTCGTGCGCGCCACTACTACTGTATATCTGCTACCTCAACCGGAGTCACCTAGTGCAG,3620 fluorescence intensity (a.u.)
4,TTTAATCACAGCGGACGGAGTCCAATATTGCAATTTTCTCCGGAGTCACCTAGTGCAG,3480 fluorescence intensity (a.u.)
5,CCCCTTCTCCTCTGCATCCTCCGCTGCGCGTGCCACCACCCGGAGTCACCTAGTGCAG,3290 fluorescence intensity (a.u.)
6,CTATAACTACAAGTGCCAACACAGCACTGTGATGCAGCACCGGAGTCACCTAGTGCAG,10400 fluorescence intensity (a.u.)
7,CCGGTCGGCCTCGCCGCCGTCGCCGCCGCCACCGCATCACCGGAGTCACCTAGTGCAG,4460 fluorescence intensity (a.u.)
8,CCCCGCGTGTCCTTCCTCCTGCACACGTGCCTCGCCGCGCCGGAGTCACCTAGTGCAG,7490 fluorescence intensity (a.u.)
9,TACTTTTCCTTGTTGGATCTTGGATGATGTGTGTACACACCGGAGTCACCTAGTGCAG,4060 fluorescence intensity (a.u.)
10,GAGGATGGGTTTATGTCAGAATTGAAAGCCTTCCTTCAGACGGAGTCACCTAGTGCAG,3420 fluorescence intensity (a.u.)
11,GCGCATGGGCTGGATGCAACCTGAGAAACACTGGGCCGAACGGAGTCACCTAGTGCAG,16000 fluorescence intensity (a.u.)
12,ACGGGCCCGCGTGGGCCCGTCGTTGCAGTCACATCCTCCCCGGAGTCACCTAGTGCAG,4830 fluorescence intensity (a.u.)
13,TCTTCATCGTCTTCCTCCTCTCCTCCCGCCACGACGCCATCGGAGTCACCTAGTGCAG,3150 fluorescence intensity (a.u.)
14,TAGTCGAGGGCCACGGCCTGGTCGGGGCTCGGCTTCGCCTCGGAGTCACCTAGTGCAG,21300 fluorescence intensity (a.u.)
15,TGGGTGGGTGGTTGCCACTTGGACACGTAGCCGGCGCCCCCGGAGTCACCTAGTGCAG,4800 fluorescence intensity (a.u.)
16,GCCGGTGGCCGTGCCGGACGGCGTCACCGTGCCGGAGTTCCGGAGTCACCTAGTGCAG,3830 fluorescence intensity (a.u.)
17,TTATACACACAGTGTGTCGTGGAGTCCGTACTACAGCTGGCGGAGTCACCTAGTGCAG,3710 fluorescence intensity (a.u.)
18,AATTATGTTTTATAAGACGTTAGCATTTAAACTACAATCCCGGAGTCACCTAGTGCAG,55600 fluorescence intensity (a.u.)
19,GATGGCCGGGAGGGAGAGAGAAGGACGCGTCGGCTGCTCCCGGAGTCACCTAGTGCAG,3850 fluorescence intensity (a.u.)
20,TTAAGCCTAATTAATCTGTCATTAGTAAATGTTTACTGTACGGAGTCACCTAGTGCAG,20600 fluorescence intensity (a.u.)
21,CAAAATATTATTAATAATTGTCACTCGCGACCTGTAGTTGCGGAGTCACCTAGTGCAG,3160 fluorescence intensity (a.u.)

# Exported with bars between the fields: entries from further up.
row | Sequence | binding signal
3 | GTCGTGCGCGCCACTACTACTGTATATCTGCTACCTCAACCGGAGTCACCTAGTGCAG | 3620 fluorescence intensity (a.u.)
7 | CCGGTCGGCCTCGCCGCCGTCGCCGCCGCCACCGCATCACCGGAGTCACCTAGTGCAG | 4460 fluorescence intensity (a.u.)

# — paper PMC7819943, “Rice protein-binding microarrays: a tool to detect cis-acting elements near promoter regions in rice”
